{"source": "PubChem BioAssay AID330", "about": "(DTP/NCI, 2004)", "test_system": "P388 leukemia ip, CD2F1 mice, survival T/C", "experiment": "NCI In Vivo Anticancer Drug Screen. Data for tumor model P388 Leukemia (intraperitoneal) in CD2F1 (CDF1) mice", "conditions": "T/C endpoint: median survival time, higher T/C = longer survival", "key": {"[1]": {"conditions": "dose: 100.0 micrograms/kg/injection, schedule: Q01DX005 (ip), vehicle: Klucel (hydroxypropylcellulose) (HPC)"}, "[2]": {"conditions": "dose: 200.0 micrograms/kg/injection, schedule: Q01DX005 (ip), vehicle: Klucel (hydroxypropylcellulose) (HPC)"}, "[3]": {"conditions": "dose: 480.0 micrograms/kg/injection, schedule: Q01DX009 (ip), vehicle: saline with Tween-80"}, "[4]": {"conditions": "dose: 200.0 mg/kg/injection, schedule: Q01DX009 (ip), vehicle: Klucel (hydroxypropylcellulose) (HPC)"}, "[5]": {"conditions": "dose: 200.0 mg/kg/injection, schedule: Q01DX009 (ip), vehicle: saline with Tween-80"}}, "note": "The list does not hold the whole screen: it gathers tests that were run many times, whatever their T/C, doses with no T/C, and many T/C values between a quarter and a half above the control. Other doses and runs of a compound stand elsewhere. T/C: endpoint of the treated group in % of that of the vehicle group. Some doses have a count of surviving animals in place of a T/C: the source files T/C as zero there, which appears to mark a toxic dose or a test without result, not a measured value. Some survivor counts are full or nearly so, which does not show that the dose was tolerated: survival well below the control is almost never listed, so the zero probably covers shortened survival too. Counts of survivors are from the toxicity check (mostly the fifth day) where no day follows; animals may have died later. Schedule codes are those of the source, taken here to give the interval after Q, in days (D) or hours (H), and the number of doses after X. Some entries hold several experiments; the values are given in rising order. For survival time, the PubChem record calls one and a half times the control and up active, and a quarter to a half above the control has no call in these data; cut-offs in other NCI protocols can differ. Some T/C values are followed by the survivors on the day toxicity was checked, most often the fifth; without a count, all were alive then. Signs of the kind (2×) say how often a value occurs here."}
{"molecule": "CSC1SCC2C(=O)N(C)C(C(C)C)C(=O)OCC(NC(=O)c3cnc4ccccc4n3)C(=O)NC(C)C(=O)N(C)C1C(=O)N(C)C(C(C)C)C(=O)OCC(NC(=O)c1cnc3ccccc3n1)C(=O)NC(C)C(=O)N2C", "note": "(stereo not drawn)", "values": [{"measurement": "T/C", "setting": "dose: 1.0 micrograms/kg/injection, schedule: Q01DX010 (ip), vehicle: saline", "value": "140 % of control"}, {"measurement": "T/C", "setting": "dose: 2.0 micrograms/kg/injection, schedule: Q01DX010 (ip), vehicle: saline", "value": "140 % of control"}, {"measurement": "T/C", "setting": "dose: 4.0 micrograms/kg/injection, schedule: Q01DX010 (ip), vehicle: saline", "value": "135 % of control"}, {"measurement": "T/C", "setting": "dose: 7.5 micrograms/kg/injection, schedule: Q01DX009 (ip), vehicle: saline with Tween-80", "value": "127 % of control"}, {"measurement": "T/C", "setting": "dose: 8.0 micrograms/kg/injection, schedule: Q01DX010 (ip), vehicle: saline", "value": "130 % of control [5 of 6 alive]"}, {"measurement": "T/C", "setting": "dose: 16.0 micrograms/kg/injection, schedule: Q01DX010 (ip), vehicle: saline", "value": "125 % of control [4 of 6 alive]"}, {"measurement": "T/C", "setting": "dose: 25.0 micrograms/kg/injection, schedule: Q01DX005 (ip), vehicle: Klucel (hydroxypropylcellulose) (HPC)", "value": "143, 149, 156, 158 % of control"}, {"measurement": "T/C", "setting": "dose: 30.0 micrograms/kg/injection, schedule: Q01DX005 (ip), vehicle: saline, evaluated on day 30", "value": "139 and 162 % of control"}, {"measurement": "T/C", "setting": "dose: 30.0 micrograms/kg/injection, schedule: Q01DX005 (ip), vehicle: saline, evaluated on day 45", "value": "156 and 157 % of control"}, {"measurement": "T/C", "setting": "dose: 30.0 micrograms/kg/injection, schedule: Q01DX005 (ip), vehicle: saline, evaluated on day 60", "value": "163 % of control"}, {"measurement": "T/C", "setting": "dose: 30.0 micrograms/kg/injection, schedule: Q01DX009 (ip), vehicle: saline with Tween-80", "value": "127 % of control"}, {"measurement": "T/C", "setting": "dose: 44.0 micrograms/kg/injection, schedule: Q01DX005 (ip), vehicle: saline, evaluated on day 30", "value": "153, 157, 168 % of control (2×)"}, {"measurement": "T/C", "setting": "dose: 44.0 micrograms/kg/injection, schedule: Q01DX005 (ip), vehicle: saline, evaluated on day 45", "value": "153, 172, 173 % of control (2×)"}, {"measurement": "T/C", "setting": "dose: 44.0 micrograms/kg/injection, schedule: Q01DX005 (ip), vehicle: saline, evaluated on day 60", "value": "178 % of control"}, {"measurement": "T/C", "setting": "dose: 50.0 micrograms/kg/injection, schedule: Q01DX005 (ip), vehicle: Klucel (hydroxypropylcellulose) (HPC)", "value": "153, 158, 160, 162 % of control"}, {"measurement": "T/C", "setting": "dose: 60.0 micrograms/kg/injection, schedule: Q01DX009 (ip), vehicle: saline with Tween-80", "value": "132 and 138 % of control"}, {"measurement": "T/C", "setting": "dose: 67.0 micrograms/kg/injection, schedule: Q01DX005 (ip), vehicle: saline, evaluated on day 30", "value": "150, 158, 161, 169, 185 % of control"}, {"measurement": "T/C", "setting": "dose: 67.0 micrograms/kg/injection, schedule: Q01DX005 (ip), vehicle: saline, evaluated on day 45", "value": "155, 172, 173, 179, 196 % of control"}, {"measurement": "T/C", "setting": "dose: 67.0 micrograms/kg/injection, schedule: Q01DX005 (ip), vehicle: saline, evaluated on day 60", "value": "154, 167, 180 % of control"}, {"measurement": "T/C", "setting": "[1]", "value": "156, 160, 179 % of control"}, {"measurement": "survivor count", "setting": "[1]", "value": "5 of 5"}, {"measurement": "T/C", "setting": "dose: 100.0 micrograms/kg/injection, schedule: Q01DX005 (ip), vehicle: saline, evaluated on day 30", "value": "159, 160, 164, 180, 202 % of control"}, {"measurement": "T/C", "setting": "dose: 100.0 micrograms/kg/injection, schedule: Q01DX005 (ip), vehicle: saline, evaluated on day 45", "value": "167, 171, 181, 185, 203 % of control"}, {"measurement": "T/C", "setting": "dose: 100.0 micrograms/kg/injection, schedule: Q01DX005 (ip), vehicle: saline, evaluated on day 60", "value": "166, 172, 182 % of control"}, {"measurement": "survivor count", "setting": "dose: 120.0 micrograms/kg/injection, schedule: Q01DX009 (ip), vehicle: saline with Tween-80", "value": "3 of 6"}, {"measurement": "T/C", "setting": "dose: 150.0 micrograms/kg/injection, schedule: Q01DX005 (ip), vehicle: saline, evaluated on day 30", "value": "169, 174, 180, 186, 194 % of control"}, {"measurement": "T/C", "setting": "dose: 150.0 micrograms/kg/injection, schedule: Q01DX005 (ip), vehicle: saline, evaluated on day 45", "value": "170, 175, 181, 184, 215 % of control"}, {"measurement": "T/C", "setting": "dose: 150.0 micrograms/kg/injection, schedule: Q01DX005 (ip), vehicle: saline, evaluated on day 60", "value": "175, 182, 190 % of control"}, {"measurement": "T/C", "setting": "[2]", "value": "111 and 153 % of control"}, {"measurement": "survivor count", "setting": "[2]", "value": "0 of 5 and 4 of 6"}, {"measurement": "T/C", "setting": "dose: 200.0 micrograms/kg/injection, schedule: Q01DX005 (ip), vehicle: saline, evaluated on day 30", "value": "112 and 148 % of control [9 of 10 alive]"}, {"measurement": "T/C", "setting": "dose: 200.0 micrograms/kg/injection, schedule: Q01DX005 (ip), vehicle: saline, evaluated on day 45", "value": "181 % of control"}, {"measurement": "T/C", "setting": "dose: 200.0 micrograms/kg/injection, schedule: Q01DX005 (ip), vehicle: saline, evaluated on day 60", "value": "99 [9 of 10 alive] and 135 % of control"}, {"measurement": "survivor count", "setting": "dose: 240.0 micrograms/kg/injection, schedule: Q01DX009 (ip), vehicle: saline with Tween-80", "value": "0 of 6"}, {"measurement": "T/C", "setting": "[3]", "value": "132 % of control"}, {"measurement": "survivor count", "setting": "[3]", "value": "0 of 6"}]}
{"molecule": "O=C1CCC2(O)[C@@H]3Cc4ccc(O)c5c4[C@]2(CCN3Cc2ccoc2)C1O5", "note": "(stereo partly drawn)", "values": [{"measurement": "survivor count", "setting": "dose: 200.0 mg/kg/injection, schedule: Q01DX009 (ip), vehicle: saline", "value": "2 of 6"}]}
{"molecule": "Clc1c(Cl)c2c(Cl)c(Cl)c1C[P+](c1ccccc1)(c1ccccc1)CC[P+](c1ccccc1)(c1ccccc1)Cc1c(Cl)c(Cl)c(c(Cl)c1Cl)C[P+](c1ccccc1)(c1ccccc1)CC[P+](c1ccccc1)(c1ccccc1)C2", "values": [{"measurement": "survivor count", "setting": "dose: 12.5 mg/kg/injection, schedule: Q01DX009 (ip), vehicle: saline with Tween-80", "value": "0 of 6"}, {"measurement": "survivor count", "setting": "dose: 25.0 mg/kg/injection, schedule: Q01DX009 (ip), vehicle: saline with Tween-80", "value": "0 of 6"}, {"measurement": "survivor count", "setting": "dose: 50.0 mg/kg/injection, schedule: Q01DX009 (ip), vehicle: saline with Tween-80", "value": "0 of 6"}]}
{"molecule": "CC(C)N(CCn1cnc2c(N)ncnc21)C(C)C", "values": [{"measurement": "survivor count", "setting": "dose: 200.0 mg/kg/injection, schedule: Q01DX005 (ip), vehicle: Klucel (hydroxypropylcellulose) (HPC)", "value": "0 of 6"}]}
{"molecule": "CC1(C)CC2(OC2c2ccccc2)C(=O)c2ccccc21", "note": "(stereo not drawn)", "values": [{"measurement": "survivor count", "setting": "[4]", "value": "6 of 6"}]}
{"molecule": "NCc1ccc(Cc2ccc(CN)cc2)cc1", "values": [{"measurement": "survivor count", "setting": "[5]", "value": "0 of 6"}]}
{"molecule": "CN1Cc2c(N)cccc2C(c2ccccc2)C1", "note": "(stereo not drawn)", "values": [{"measurement": "survivor count", "setting": "[4]", "value": "0 of 6"}]}
{"molecule": "COC(=O)Nc1nc2cc(Cl)c(Cl)cc2[nH]1", "values": [{"measurement": "T/C", "setting": "dose: 100.0 mg/kg/injection, schedule: Q01DX009 (ip), vehicle: saline with Tween-80", "value": "128 and 135 % of control"}, {"measurement": "T/C", "setting": "[5]", "value": "135 and 138 % of control"}, {"measurement": "T/C", "setting": "dose: 400.0 mg/kg/injection, schedule: Q01DX009 (ip), vehicle: saline with Tween-80", "value": "141 and 143 % of control"}, {"measurement": "T/C", "setting": "dose: 600.0 mg/kg/injection, schedule: Q01DX009 (ip), vehicle: saline with Tween-80", "value": "141 % of control"}]}
